The record followed here is patent US20120253017A1.

The chains behind the UniProt entries cited, without tags or fusion partners. Residues count along the entry.
UniProt P05532, residues 25-979: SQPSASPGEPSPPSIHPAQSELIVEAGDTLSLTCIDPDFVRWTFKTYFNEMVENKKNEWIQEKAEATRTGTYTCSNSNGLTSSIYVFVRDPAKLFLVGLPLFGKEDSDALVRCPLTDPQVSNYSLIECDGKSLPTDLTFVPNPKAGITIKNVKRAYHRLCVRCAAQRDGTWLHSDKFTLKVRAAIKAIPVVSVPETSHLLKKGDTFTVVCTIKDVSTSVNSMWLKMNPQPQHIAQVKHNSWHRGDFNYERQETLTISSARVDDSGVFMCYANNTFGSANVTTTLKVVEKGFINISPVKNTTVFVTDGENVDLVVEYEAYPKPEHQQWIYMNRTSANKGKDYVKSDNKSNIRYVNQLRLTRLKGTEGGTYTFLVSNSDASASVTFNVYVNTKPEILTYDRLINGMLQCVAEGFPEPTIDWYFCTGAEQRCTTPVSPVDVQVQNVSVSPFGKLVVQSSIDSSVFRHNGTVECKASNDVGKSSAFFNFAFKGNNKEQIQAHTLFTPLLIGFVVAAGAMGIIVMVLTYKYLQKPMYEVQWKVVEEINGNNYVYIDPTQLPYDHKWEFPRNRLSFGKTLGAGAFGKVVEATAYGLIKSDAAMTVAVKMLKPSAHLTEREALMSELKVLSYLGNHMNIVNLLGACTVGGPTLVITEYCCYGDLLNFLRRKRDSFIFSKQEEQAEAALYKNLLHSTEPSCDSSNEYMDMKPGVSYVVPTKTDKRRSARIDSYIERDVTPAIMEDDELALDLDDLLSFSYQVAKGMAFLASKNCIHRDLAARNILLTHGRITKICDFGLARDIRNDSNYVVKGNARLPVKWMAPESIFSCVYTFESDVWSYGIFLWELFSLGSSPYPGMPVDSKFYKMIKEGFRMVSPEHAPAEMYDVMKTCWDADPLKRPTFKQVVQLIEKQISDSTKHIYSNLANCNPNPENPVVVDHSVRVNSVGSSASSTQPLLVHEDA
UniProt P10721, residues 26-524: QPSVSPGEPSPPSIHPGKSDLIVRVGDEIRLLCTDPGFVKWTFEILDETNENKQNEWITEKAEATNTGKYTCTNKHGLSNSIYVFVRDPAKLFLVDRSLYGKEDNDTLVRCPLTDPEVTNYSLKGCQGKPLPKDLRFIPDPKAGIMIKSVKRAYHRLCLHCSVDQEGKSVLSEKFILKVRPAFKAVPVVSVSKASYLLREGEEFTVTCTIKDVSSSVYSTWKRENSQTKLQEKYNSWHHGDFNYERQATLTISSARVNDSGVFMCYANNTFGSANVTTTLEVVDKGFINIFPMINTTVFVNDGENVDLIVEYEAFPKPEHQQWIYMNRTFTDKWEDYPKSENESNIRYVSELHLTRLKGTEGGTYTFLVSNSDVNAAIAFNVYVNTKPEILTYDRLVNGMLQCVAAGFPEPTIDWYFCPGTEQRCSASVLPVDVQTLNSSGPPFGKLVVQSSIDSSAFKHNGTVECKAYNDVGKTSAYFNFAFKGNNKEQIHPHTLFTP

No constants are given. Whether binding was seen depends on the method and setting. Some binding calls cover weakened binding; strength is not graded here.

Assay [1] has as its target mouse c-kit on EML cells (mouse) (UniProt P05532). The assay can be described thus: flow cytometry, EML cells; inconclusive, binds on 2 of 3 occasions. A general note: Flow cytometry measures light scatter and fluorescence of single cells or particles in a stream.
Assay [2] shares this target. Put plainly: flow cytometry, EML cells.
In assay [3] the target is human c-kit (recombinant, on BIAcore chip or beads) (human) (UniProt P10721). The assay can be described thus: BIAcore 2000, 1 uM dAb. For orientation: SPR reads the build-up and loss of mass on a sensor chip optically.
Assay [4] addresses mouse c-kit on EML cells (mouse) (UniProt P05532). Put plainly: flow cytometry, EML cells; inconclusive, binds on 2 of 4 occasions.

B1: DOM28m-23 (protein)
VH: EVRLLESGGGLVQPGGSLRLSCAASGFTFRDYVMVWVRQAPGKGLEWVSAIAPTGGYTYYADSVKGRFTISRDNSKNTLYLQMNSLRAEDTAVYYCAKSLRTWLSEDLPFDYWGQGTLVTVSS
For B1, the binding entry in assay [1] is on record as “binds”.

B2: DOM28m-52 (protein)
chain: EVQLLESGGGLVQPGGSLRLSCAASGFTFSSYNMSWVRQAPGKGLEWVSWISSSGLMTYYADSVKGRFTISRDNSKNTLYLQMNSLRAEDTAVYYCAKTSLGSHPSRRPFDYWGQGTLVTVSS
B2: the binding entry in assay [2] is “binds”.

B3: DOM28m-7 (protein)
VH: EVQLLESGGGLVQPGGSLRLSCAASGFTFSNYAMGWVRQAPGKGLEWVSSISSSGFATYYADSVKGRFTISRDNSKNTLYLQMNSLRAEDTAVYYCAKSESRTFKAFDYWGQGTLVTVSS
Consider B3, for which the binding result in assay [3] and in assay [4] was “binds” throughout.

B4: DOM28m-53 (protein)
VH: EVQLLESGGGLVQPGGSLRLSCAASGFTFSDYMMMWVRQAPGKGLEWVSTIDHAGAVTYYADSVKGRFTISRDNSKNTLYLQMNSLRAEDTAVYYCAKNQPVWQANQSRRFDYWGQGTLVTVSS
Consider B4, for which, in assay [2], the binding entry is reported as “binds”.
